Measured data: PubChem BioAssay AID1259254 (NCATS, 2017)
The whole screen tested about 59,000 reagents; shown is a part drawn at random. About 1,550 of all reagents (2.6%) count as active. 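G2 share is only a proxy for re-replication; each gene was hit by three separate siRNAs, and active genes were retested.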 Entries without a mark were called inactive. Further read-outs or replicates are left out here. Not stated in the record: the amount of reagent.

- Assay: 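Gene knock-downs that lead to re-replication, shown by excess G2 DNA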 (primary screen)
- System: human HCT116 colorectal cancer cells
- Knock-down reagent: single siRNA against human genes
- Time to read-out: 3 days
- Measurement: 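Nuclei stained with Hoechst and imaged; cell-cycle phase assigned by DNA content; G2 share scaled per plate, non-targeting siRNA 0%, GMNN siRNA 100%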
- Direction: G2 robust z-score: higher = more G2 cells, more excess DNA replication
- Rule for the call: 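An siRNA counts as active if its G2 robust z-score lies at least 5 MADs above the screen median; here such calls match roughly 38% of GMNN control or more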

SLC12A3 [SID160716935]: G2 robust z-score = 2.65
SLC12A3 [SID160716936]: G2 robust z-score = 0.15
SLC12A3 [SID160716938]: G2 robust z-score = -0.529
VAX1 [SID160729768]: G2 robust z-score = 0.356
VAX1 [SID160729769]: G2 robust z-score = 1.98
VAX1 [SID160730495]: G2 robust z-score = -0.716
NR4A3 [SID160719550]: G2 robust z-score = 1.49
NR4A3 [SID160719551]: G2 robust z-score = -0.525
NR4A3 [SID160719552]: G2 robust z-score = -0.011
UTP11 [SID160731351]: G2 robust z-score = 2.14
UTP11 [SID160740107]: G2 robust z-score = 0.261
UTP11 [SID160740109]: G2 robust z-score = 7.85 (active)

The list goes on (3 carried over from the part before).
UTP11 [SID160731351]: G2 robust z-score = 2.14
UTP11 [SID160740107]: G2 robust z-score = 0.261
UTP11 [SID160740109]: G2 robust z-score = 7.85 (active)
SSTR2 [SID160717402]: G2 robust z-score = 5.04 (active)
SSTR2 [SID160717403]: G2 robust z-score = 0.955
SSTR2 [SID160717406]: G2 robust z-score = 1.92
PHRF1 [SID160746519]: G2 robust z-score = 0.79
PHRF1 [SID160746520]: G2 robust z-score = 0.197
PHRF1 [SID160746521]: G2 robust z-score = -0.302
RAD23B [SID160715594]: G2 robust z-score = 0.961
RAD23B [SID160715595]: G2 robust z-score = -1.21
RAD23B [SID160715596]: G2 robust z-score = -0.5
AGAP2 [SID160755503]: G2 robust z-score = -0.6
AGAP2 [SID160755505]: G2 robust z-score = -0.803
AGAP2 [SID160755506]: G2 robust z-score = 0.996
